# The other results are listed elsewhere or left out.
# B1: il10ra_site1_normal_mot_bc09c72237e61002eddc20b9c710af39_0001_1_000000136_0001_54_65_H_._791c408cb5e71e67ed545e9073e8da87_0001_0001_0000200017_0000001_0 (protein)
# chain: SKEELEEIAELVEEGDPEAQRLAKEFLKEHLGVPPEHVEEAVEYLARHAGRPPEEVLSLMLRLYG
# B2: il10ra_site1_normal_mot_HHH_b2_07579_000000275_0001_1_19_H_._HHH_b2_08251_0001_0000200042_0000002_0 (protein)
# chain: SSSSTEAAQIVRELLREAIELLRNGNPEEARRVLEEAEEVAEEGNNPVLEFSVRHLLRDLNSSSS
# B3: il10ra_site1_normal_mot_8756ee2cf497b5429c717dfc0c0bcfd6_0001_000000186_0001_1_13_H_._HHH_b1_04775_af2_0001_0000600024_0000001_0 (protein)
# chain: SSSSDETEEVAKILEEAAELDLEGNPEEARELVEEALRIAEELRNDVLRAQAEYLLRIIENSSSS
# B4: il10ra_site1_normal_mot_8756ee2cf497b5429c717dfc0c0bcfd6_0001_000000186_0001_1_13_H_._HHH_b1_05999_af2_0001_0000500026_0000001_0_af2pred_0001 (protein)
# chain: SSSSSEEAREALELLRKAVELASDGNPEEAREVVREAKELAEEAGNLTLRVAIEFLEKRLESSSS
# B5: il10ra_site1_sap_31_mot_HHH_b1_00102_af2_000000216_0001_43_57_H_._HHH_b2_04027_af2_0001_0000300014_0000002_0_0001 (protein)
# chain: SSSSSEEEEELEELLRRIEEAVRRGDPELFAELVQELLRLAFQLSDEEVLQELYELFRKAASSSS
# B6: il10ra_site1_sap_24_mot_0eddeacbb14b769e73e254714f31e2f9_0001_af2_000000203_0001_37_51_H_._HHH_b2_07388_0001_0000500025_0000002_0_0001 (protein)
# chain: SSSSDEELEETLRELQEAAEEGDLELFWELSRRALELARELGDEEALERILELVRLIAENASSSS
# B7: il10ra_site1_normal_mot_HHH_b1_05185_000000011_0001_22_39_H_._HHH_b2_07609_af2_0001_0000400030_0000001_0_af2pred_0001 (protein)
# chain: SSSSSEEAKKAAEFLVKAAKQIDDPEKVKLTLRFAKHLAELANDEELLEEIEELEEELRKSSSSS
# B8: il10ra_site1_sap_13_mot_HHH_b2_00093_af2_000000025_0001_40_54_H_._HHH_b1_02486_0001_0000800030_0000001_0_0001 (protein)
# chain: SSSSTEVAREVYELIEKAFELKEEGDPEEARRILEEALEIAEENNNRLLVIVLRHLLRAENSSSS
# B9: il10ra_site1_sap_21_mot_HHH_b1_07962_000000254_0001_41_55_H_._HHH_b2_04450_0001_0000400041_0000001_0_0001_af2pred_0001 (protein)
# chain: SSSSSQEEIRLEAIIRYAELSWELGNRHVARKAVEIAIELAEELNNPEILEELRQLLEELESSSS
# B10: il10ra_site1_normal_mot_HHH_b2_03220_af2_000000223_0001_23_40_H_._HHH_b1_01843_af2_0001_0000200015_0000002_0 (protein)
# chain: SSSSSSSEAEEVWRLLREALHIDDEEEVQELLEEAKRLAEELNSEVLRIVIEFLERDLSSSSSSS
# B11: il10ra_site1_normal_mot_b26a303360aa2756ef5b79665ce52f45_0001_000000179_0001_1_11_H_._HHH_b1_00459_0001_0000400033_0000001_0 (protein)
# chain: SSSSDLHELTEEVFRLLKEAAESGDEELLEEVLEELLRLAQEVNNVVLVFSLEHKLRALRSSSSS
# B12: il10ra_site1_sap_37_mot_49468d6c54d8157f7969f91124172a68_0001_af2_000000173_0001_37_51_H_._f047eb42cf1b485822c4fa8256f1421d_0001_0001_0000100003_0000001_1_0001 (protein)
# chain: SSSSSSDDALELSVEAFRLALRGNPEEAEKVLEKALEIAEENNNERLKEMLEQLLKTQSSSSSSS
# B13: il10ra_site1_sap_18_mot_HHH_b2_03220_af2_000000223_0001_23_40_H_._HHH_b1_03263_af2_0001_0000400016_0000002_0_0001 (protein)
# chain: SSSSSLAEEAYRLLREAMEAMDEGDEELVRELIEEAEKLAEEAGNRVILQVIRWSLERFNSSSSS
# B14: il10ra_site1_normal_mot_HHH_b1_01011_000000096_0001_1_19_H_._HHH_b1_08664_0001_0000100005_0000001_0 (protein)
# chain: SSSSSSDYLELSLKFAKFLLEEGDEEAARRILKAAADVAEREGDPLLEEIEELLEEVRSSSSSSS
# B15: il10ra_site1_normal_mot_HHH_b2_08144_af2_000000046_0001_38_52_H_._HHH_b1_08340_af2_0001_0000200013_0000001_0 (protein)
# chain: SSSSDELIQRIFKLLRELAELVHEGNEEEVERVYEEIKELLEELGNPLLEIQLEFLFRSLRSSSS
# B16: il10ra_site1_normal_mot_HHH_b1_06789_af2_000000041_0001_1_20_H_._HHH_b1_02788_0001_0000200021_0000002_0 (protein)
# chain: SSSSDLEEEIEEAIEEARENGDEHIVEILENLLRQIRRDGSPNARWLVRQVIKALKNLLENSSSS
# B17: il10ra_site1_sap_20_mot_HHH_b2_03220_af2_000000223_0001_23_40_H_._HHH_b1_00867_0001_0000100009_0000001_0_0001 (protein)
# chain: SSSSDEETQEILRLIEEAMKLATEGDPEEAREVLREAEEIAEEINNRLAKIQIEFVLRRLGSSSS
# B18: il10ra_site1_sap_15_mot_HHH_b2_00475_000000002_0001_44_57_H_._HHH_b2_02112_0001_0000100002_0000001_0_0001 (protein)
# chain: SSSSSEENRRLYELLRRAVELDHEGNPEEAEEVLEEARELAEEANNRVLLAVIRAMQELLNSSSS
# Biological target: il10ra, Q13651
# Assay: yeast display titration
row,Binder,apparent Kd
1,B1,inactive: no binding seen
2,B2,inactive: no binding seen
3,B3,inactive: no binding seen
4,B4,inactive: no binding seen
5,B5,inactive: no binding seen
6,B6,inactive: no binding seen
7,B7,inactive: no binding seen
8,B8,inactive: no binding seen
9,B9,inactive: no binding seen
10,B10,inactive: no binding seen
11,B11,inactive: no binding seen
12,B12,inactive: no binding seen
13,B13,inactive: no binding seen
14,B14,inactive: no binding seen
15,B15,inactive: no binding seen
16,B16,inactive: no binding seen
17,B17,inactive: no binding seen
18,B18,inactive: no binding seen

# 2 entries drawn at random from the list so far:
row,Binder,apparent Kd
7,B7,inactive: no binding seen
18,B18,inactive: no binding seen

# From PMC10163288
